Results from PubChem BioAssay AID192 (DTP/NCI, 2004).
The list shows only some results of the screen, not a fair sample: it is rich in T/C values a quarter to a half above the control, in often repeated tests (any T/C) and in doses without a T/C. Other doses and runs of a compound stand elsewhere. T/C gives the treated animals as a percentage of the vehicle group. Some doses have a count of surviving animals in place of a T/C: the source holds a T/C of zero for them, seemingly a mark for toxic or unscored doses. Some survivor counts are full or nearly so, which does not show that the dose was tolerated: survival well below the control is almost never listed, so the zero probably covers shortened survival too. Counts of survivors are from the toxicity check (mostly the fifth day) where no day follows; animals may have died later. Schedules are NCI's codes, read here as Q, the interval in days (D) or hours (H), X, the number of doses. Some entries hold several experiments; their values stand side by side, smallest first. Where survival is the endpoint, the PubChem record calls one and a half times the control and up active, and a quarter to a half above the control has no call in these data; cut-offs in other NCI protocols can differ. Some T/C values are followed by the survivors on the day toxicity was checked, most often the fifth; where none is given, no animal had died by that day.

Test system: BDF1 mice, B16 melanoma ip, median survival T/C
Experiment: NCI In Vivo Anticancer Drug Screen. Data for tumor model B16 Melanoma (intraperitoneal) in B6D2F1 (BDF1) mice
Settings: T/C endpoint: median survival time, higher T/C = longer survival
How it was run: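 In this screen, activity was judged from survival or tumor size in treated versus vehicle-treated tumor-bearing mice, reported as T/C.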

[1] = dose: 3.7 micrograms/kg/injection, schedule: Q01DX009 (ip), vehicle: saline with Tween-80
[2] = dose: 7.5 micrograms/kg/injection, schedule: Q01DX009 (ip), vehicle: saline with Tween-80

With `Cc1ccc(NC(=O)COc2ccc(Cl)cc2)c(C)c1` the survivor count (dose: 12.5 mg/kg/injection, schedule: Q01DX009 (ip), vehicle: saline with Tween-80) was 10 of 10, the survivor count (dose: 75.0 mg/kg/injection, schedule: Q01DX009 (ip), vehicle: Klucel (hydroxypropylcellulose) (HPC)) was 10 of 10 and the survivor count (dose: 150.0 mg/kg/injection, schedule: Q01DX009 (ip), vehicle: Klucel (hydroxypropylcellulose) (HPC)) was 10 of 10. For the same compound, the survivor count (dose: 300.0 mg/kg/injection, schedule: Q01DX009 (ip), vehicle: Klucel (hydroxypropylcellulose) (HPC)) was 10 of 10.
In the case of `c1ccc([I+]c2ccccc2)cc1`, the survivor count (dose: 12.0 mg/kg/injection, schedule: Q01DX009 (sc), vehicle: olive oil, sesame oil, peanut oil) is reported as 10 of 10 and the survivor count (dose: 25.0 mg/kg/injection, schedule: Q01DX009 (sc), vehicle: olive oil, sesame oil, peanut oil) is reported as 2 of 10.
`CSC1SCC2C(=O)N(C)C(C(C)C)C(=O)OCC(NC(=O)c3cnc4ccccc4n3)C(=O)NC(C)C(=O)N(C)C1C(=O)N(C)C(C(C)C)C(=O)OCC(NC(=O)c1cnc3ccccc3n1)C(=O)NC(C)C(=O)N2C` (centres undefined) was tested, and the T/C (dose: 1.9 micrograms/kg/injection, schedule: Q01DX009 (ip), vehicle: saline) was 131 % of control, the T/C [1] was 138 % of control and the survivor count [1] was 10 of 10. For the same compound, the T/C (dose: 3.75 micrograms/kg/injection, schedule: Q01DX009 (ip), vehicle: clinical formulation) was 127 % of control, the T/C (dose: 3.8 micrograms/kg/injection, schedule: Q01DX009 (ip), vehicle: saline) was 137 % of control [9 of 10 alive] and the T/C (dose: 7.5 micrograms/kg/injection, schedule: Q01DX009 (ip), vehicle: clinical formulation) was 140 % of control [9 of 10 alive]. The T/C [2] was 148 % of control, the survivor count [2] was 10 of 10 and the T/C (dose: 8.0 micrograms/kg/injection, schedule: Q01DX009 (ip), vehicle: other) was 134 % of control. The T/C (dose: 15.0 micrograms/kg/injection, schedule: Q01DX009 (ip), vehicle: distilled water + alcohol) was 143 % of control, the T/C (dose: 15.0 micrograms/kg/injection, schedule: Q01DX009 (ip), vehicle: saline) was 138 % of control and the T/C (dose: 16.0 micrograms/kg/injection, schedule: Q01DX009 (ip), vehicle: other) was 142 % of control. The T/C (dose: 16.0 micrograms/kg/injection, schedule: Q01DX009 (ip), vehicle: saline sonified) was 135 % of control, the T/C (dose: 30.0 micrograms/kg/injection, schedule: Q01DX009 (ip), vehicle: Klucel (hydroxypropylcellulose) (HPC)) was 127 % of control [8 of 10 alive] and the T/C (dose: 30.0 micrograms/kg/injection, schedule: Q01DX009 (ip), vehicle: distilled water + alcohol) was 148 % of control. For the same compound, the T/C (dose: 30.0 micrograms/kg/injection, schedule: Q01DX009 (ip), vehicle: saline with Tween-80) was 148 % of control, the T/C (dose: 30.0 micrograms/kg/injection, schedule: Q01DX009 (ip), vehicle: saline) was 149 % of control and the T/C (dose: 60.0 micrograms/kg/injection, schedule: Q01DX009 (ip), vehicle: Klucel (hydroxypropylcellulose) (HPC)) was 147 % of control. The T/C (dose: 64.0 micrograms/kg/injection, schedule: Q01DX009 (ip), vehicle: saline sonified) was 148 % of control [9 of 10 alive on day 10], the survivor count (dose: 120.0 micrograms/kg/injection, schedule: Q01DX009 (ip), vehicle: clinical formulation) was 10 of 10 and the survivor count (dose: 128.0 micrograms/kg/injection, schedule: Q01DX009 (ip), vehicle: saline sonified) was 6 of 9 on day 10. The survivor count (dose: 192.0 micrograms/kg/injection, schedule: Q01DX009 (ip), vehicle: saline sonified) was 0 of 10 on day 10, the survivor count (dose: 240.0 micrograms/kg/injection, schedule: Q01DX009 (ip), vehicle: clinical formulation) was 9 of 10 and the survivor count (dose: 240.0 micrograms/kg/injection, schedule: Q01DX009 (ip), vehicle: distilled water + alcohol) was 8 of 10. The survivor count (dose: 240.0 micrograms/kg/injection, schedule: Q01DX009 (ip), vehicle: saline with Tween-80) was 10 of 10, the survivor count (dose: 480.0 micrograms/kg/injection, schedule: Q01DX009 (ip), vehicle: clinical formulation) was 1 of 10 and the survivor count (dose: 480.0 micrograms/kg/injection, schedule: Q01DX009 (ip), vehicle: distilled water + alcohol) was 1 of 10. The survivor count (dose: 480.0 micrograms/kg/injection, schedule: Q01DX009 (ip), vehicle: saline with Tween-80) was 8 of 10 and 10 of 10.
